These are yes or no findings as the source states them, for the method shown. In cells and extracts the contact can be indirect. Some entries that bind do so weakly or less than the wild type. For part of these data: Tags and fused reporters may be left off the sequences shown. Each block holds one binder with its values, some of them ahead of it.
Legend:
Assay in all cases: co-IP; HEK293 cells transfected with epitope-tagged proteins; lysis in 150 mM NaCl, 50 mM Tris pH 7.5, 1% Triton X-100 or RIPA buffer; anti-Myc antibody with Protein A/G agarose overnight at 4°C; Western blot
[1] = molecular target: Sorting Nexin 9 (SNX9), mouse, epitope-tagged (mouse) (UniProt Q91VH2)
[2] = molecular target: T1, FCHSD2 (FCH domain and double SH3 domains containing protein 2), mouse, epitope-tagged full-length (mouse) (UniProt Q3USJ8)
T1 sequence: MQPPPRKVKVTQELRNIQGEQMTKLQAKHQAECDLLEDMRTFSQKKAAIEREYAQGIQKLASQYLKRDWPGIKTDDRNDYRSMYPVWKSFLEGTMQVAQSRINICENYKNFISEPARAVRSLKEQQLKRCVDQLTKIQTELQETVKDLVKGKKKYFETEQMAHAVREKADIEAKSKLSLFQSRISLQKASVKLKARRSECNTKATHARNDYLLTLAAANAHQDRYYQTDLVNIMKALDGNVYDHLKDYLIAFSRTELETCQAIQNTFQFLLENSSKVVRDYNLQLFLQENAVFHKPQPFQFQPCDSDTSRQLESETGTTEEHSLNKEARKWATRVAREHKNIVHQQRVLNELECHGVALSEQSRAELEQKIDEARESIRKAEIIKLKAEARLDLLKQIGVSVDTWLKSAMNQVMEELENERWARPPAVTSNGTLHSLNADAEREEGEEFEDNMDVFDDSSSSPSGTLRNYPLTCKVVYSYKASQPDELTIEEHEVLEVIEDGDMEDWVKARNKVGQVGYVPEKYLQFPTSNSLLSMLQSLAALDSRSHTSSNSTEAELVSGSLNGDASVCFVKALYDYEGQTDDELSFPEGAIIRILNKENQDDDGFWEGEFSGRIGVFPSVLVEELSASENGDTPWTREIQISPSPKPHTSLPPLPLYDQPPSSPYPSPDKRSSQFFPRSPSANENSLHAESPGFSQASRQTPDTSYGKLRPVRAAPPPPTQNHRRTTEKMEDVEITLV

Chains of the proteins cited; added tags and fusions are not shown.
UniProt O00401: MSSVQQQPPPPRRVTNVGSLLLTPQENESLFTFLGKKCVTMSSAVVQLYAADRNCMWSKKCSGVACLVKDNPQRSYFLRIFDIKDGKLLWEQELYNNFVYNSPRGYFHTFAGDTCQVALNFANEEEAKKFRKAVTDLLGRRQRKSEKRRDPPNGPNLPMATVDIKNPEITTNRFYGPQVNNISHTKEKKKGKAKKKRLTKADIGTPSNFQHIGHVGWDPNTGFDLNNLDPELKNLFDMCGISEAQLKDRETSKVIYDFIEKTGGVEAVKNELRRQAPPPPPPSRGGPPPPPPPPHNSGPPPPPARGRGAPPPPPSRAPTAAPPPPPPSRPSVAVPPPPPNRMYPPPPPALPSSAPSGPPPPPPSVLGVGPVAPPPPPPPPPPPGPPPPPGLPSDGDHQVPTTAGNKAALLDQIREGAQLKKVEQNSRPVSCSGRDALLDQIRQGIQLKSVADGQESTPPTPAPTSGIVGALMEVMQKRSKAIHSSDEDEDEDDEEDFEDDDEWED
UniProt P42768: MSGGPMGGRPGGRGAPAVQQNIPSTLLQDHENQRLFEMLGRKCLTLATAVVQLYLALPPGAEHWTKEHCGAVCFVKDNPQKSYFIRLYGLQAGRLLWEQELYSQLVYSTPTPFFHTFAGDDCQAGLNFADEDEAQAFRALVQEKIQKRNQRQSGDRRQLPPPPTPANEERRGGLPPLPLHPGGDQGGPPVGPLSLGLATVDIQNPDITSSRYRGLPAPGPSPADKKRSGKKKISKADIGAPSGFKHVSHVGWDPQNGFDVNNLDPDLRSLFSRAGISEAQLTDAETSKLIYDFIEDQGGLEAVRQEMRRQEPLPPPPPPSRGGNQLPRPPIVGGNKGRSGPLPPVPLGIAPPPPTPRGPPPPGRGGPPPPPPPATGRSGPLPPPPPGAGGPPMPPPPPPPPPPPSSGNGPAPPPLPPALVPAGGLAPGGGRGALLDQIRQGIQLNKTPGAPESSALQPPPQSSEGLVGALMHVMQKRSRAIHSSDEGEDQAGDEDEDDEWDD

N-WASP, epitope-tagged = N-WASP, epitope-tagged (UniProt O00401)
WASP, epitope-tagged = WASP, epitope-tagged (UniProt P42768)
[3] = molecular target: FCHSD1 (FCH domain and double SH3 domains containing protein 1), mouse, epitope-tagged full-length (mouse) (UniProt Q6PFY1)

binding [1]: binds
B1: FCHSD1-F-BAR (1–315aa) (domain or fragment, UniProt Q6PFY1 1-315)
chain: MQPPPRKVKPAQEVKLRFLEQLSILQTRQQREADLLEDIRSYSKQRAAIEREYGQALQKLAGPFLKREGQRSGEADSRTVFGAWRCLLDATVAGGQTRLQASDRYRDLAGGTGRSAKEQVLRKGTESLQQAQAEVLQSVRELSRSRKLYGQRQRVWALAQEKAADVQARLNRSDHGIFHSRTSLQKLSTKLSAQSAQYSQQLRAARNEYLLNLVATNAHLAHYYQEELPALLKVLVSELSEYLRDPLTLLGHTELEAAEMILEHARHGGKATSQVNWEQDVKLFLQGPGVFSPTPPQQFQPAGADQVCGLEWGAG

binding [2]: binds | binding (N-WASP, epitope-tagged): binds | binding (WASP, epitope-tagged): binds | binding [1]: no binding
B2: FCHSD2 (FCH domain and double SH3 domains containing protein 2), mouse, epitope-tagged full-length (protein, UniProt Q3USJ8 1-740)
chain: T1 sequence

binding [3]: binds
B3: SNX9-SH3 (1–65aa) (domain or fragment, UniProt Q91VH2 1-65)
chain: MATKARVMYDFAAEPGNNELTVTEGEIITVTNPNVGGGWLEGKNNKGEQGLVPTDYVEILPNDGK
